These are yes or no findings as the source states them, for the method shown. Some binding calls cover weakened binding; strength is not graded here.

By UniProt entry, the sequences of proteins in these tests, tags left out. Residues count along the entry.
UniProt P07996, residues 19-1170: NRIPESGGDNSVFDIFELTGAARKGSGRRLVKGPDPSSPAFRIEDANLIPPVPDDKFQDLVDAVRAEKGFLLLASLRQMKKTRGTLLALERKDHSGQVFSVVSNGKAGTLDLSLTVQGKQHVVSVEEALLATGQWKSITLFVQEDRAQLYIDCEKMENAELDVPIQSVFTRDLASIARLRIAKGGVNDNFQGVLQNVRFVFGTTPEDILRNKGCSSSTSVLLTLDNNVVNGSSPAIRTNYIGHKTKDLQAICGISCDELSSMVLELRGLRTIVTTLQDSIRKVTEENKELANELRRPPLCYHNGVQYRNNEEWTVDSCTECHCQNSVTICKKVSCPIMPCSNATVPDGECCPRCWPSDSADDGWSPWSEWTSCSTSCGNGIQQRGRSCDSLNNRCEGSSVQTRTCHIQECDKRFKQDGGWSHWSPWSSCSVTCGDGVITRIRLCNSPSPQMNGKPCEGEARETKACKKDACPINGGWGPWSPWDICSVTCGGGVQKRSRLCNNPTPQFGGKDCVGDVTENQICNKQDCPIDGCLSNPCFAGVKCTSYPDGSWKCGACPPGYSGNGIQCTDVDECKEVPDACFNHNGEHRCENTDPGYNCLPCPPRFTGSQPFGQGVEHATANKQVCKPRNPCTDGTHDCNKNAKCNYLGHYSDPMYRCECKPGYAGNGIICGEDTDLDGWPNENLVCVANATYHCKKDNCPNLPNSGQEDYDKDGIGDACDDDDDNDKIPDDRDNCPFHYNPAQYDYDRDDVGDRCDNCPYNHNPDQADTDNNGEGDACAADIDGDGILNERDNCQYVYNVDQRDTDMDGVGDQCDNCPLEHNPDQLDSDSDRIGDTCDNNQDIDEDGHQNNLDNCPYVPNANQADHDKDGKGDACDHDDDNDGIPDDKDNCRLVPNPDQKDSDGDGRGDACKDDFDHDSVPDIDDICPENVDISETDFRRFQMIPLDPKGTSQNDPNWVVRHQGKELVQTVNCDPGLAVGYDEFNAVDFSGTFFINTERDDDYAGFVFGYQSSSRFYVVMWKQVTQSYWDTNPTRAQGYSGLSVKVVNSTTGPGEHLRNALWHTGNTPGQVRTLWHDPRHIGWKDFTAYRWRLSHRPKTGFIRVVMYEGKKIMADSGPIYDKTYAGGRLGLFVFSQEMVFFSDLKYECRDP
UniProt P13501, residues 24-91: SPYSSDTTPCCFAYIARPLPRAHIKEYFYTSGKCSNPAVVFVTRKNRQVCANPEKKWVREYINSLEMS

Binding data for 1 substance are collected here from patent publication US6964763.

Assay [1] deals with Purified human calcium-replete thrombospondin-1 (TSP1) from thrombin-activated platelets (human) (UniProt P07996). The assay is described as follows: solid phase binding, 125I-RANTES (0.01 µM -10.0 µM) on immobilized TSP1.
Assay [2] has the same target. In words: solid phase binding, 125I-RANTES on immobilized TSP1.

Turning to “RANTES (regulated on activation normal T expressed and secreted protein) (from UniProt P13501 24-91) (ligand)”, the binding result in assay [1] and in assay [2] was “binds” each time.
